Measurements reported in PubChem BioAssay AID1508597 (Cure First, 2020)
Shown is an unselected part of the about 2,100 reagents, under one of the conditions tested. 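Calls flag viability under 80% in either arm, not effects specific to rucaparib; the reference for percent is not stated.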 Unmarked entries are inactive. A reagent listed more than once was tested more than once; the source does not tell the runs apart. The record does not give: the 100% reference.

Test: 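Knock-downs altering ovarian cancer cell survival with or without PARP inhibitor rucaparib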 (primary screen)
Cells: human ovarian carcinoma lines grown from tumours: OCI-P5x (papillary serous) and OCI-C5x (clear cell)
Reagent: siRNA pool against human genes, 1.25 pmol siRNA per well
Duration: 72 h or 96 h, depending on the cell culture
Conditions: rucaparib 20 µM (about IC30) or vehicle, present until read-out
Rucaparib or vehicle: Rucaparib
Cell line: OCI-P5x (serous)
Measured: 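ATP luminescence measured at 72 or 96 h according to the culture, then normalised and expressed as percent viability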
Scale: viability, normalised: higher = more viable cells remaining
Rule for the call: 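a well counts as a hit if its normalised viability is under 80 percent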
Meaning of the calls: active = viability under 80%; inactive = viability 80% or more

With BRDT, technical replicate 1, what does the deposit list?
viability, normalised (%): 75.3 (active)

How did the screen score BRDT, technical replicate 1?
viability, normalised (%): 56.2 (active)

How did the screen score BRDT, technical replicate 2?
viability, normalised (%): 56.6 (active)

What did the screen give for BRDT, technical replicate 2?
viability, normalised (%): 82.2

Which result is listed for BRDT, technical replicate 3?
viability, normalised (%): 87.8

With BRDT, technical replicate 3, what was measured?
viability, normalised (%): 51.1 (active)

For DAPK3, technical replicate 1, how do the results read?
viability, normalised (%): 47.4 (active)

How did the screen score DAPK3, technical replicate 1?
viability, normalised (%): 85

What did the screen give for DAPK3, technical replicate 2?
viability, normalised (%): 65.4 (active)

For DAPK3, technical replicate 2, what was measured?
viability, normalised (%): 83.5

With DAPK3, technical replicate 3, what was measured?
viability, normalised (%): 45.6 (active)

How did the screen score DAPK3, technical replicate 3?
viability, normalised (%): 92.4

Hits, of those listed so far:
BRDT, technical replicate 1 — viability, normalised (%): 75.3 (active)
BRDT, technical replicate 1 — viability, normalised (%): 56.2 (active)
BRDT, technical replicate 2 — viability, normalised (%): 56.6 (active)
BRDT, technical replicate 3 — viability, normalised (%): 51.1 (active)
DAPK3, technical replicate 1 — viability, normalised (%): 47.4 (active)
DAPK3, technical replicate 2 — viability, normalised (%): 65.4 (active)
DAPK3, technical replicate 3 — viability, normalised (%): 45.6 (active)
